Data reported in patent US7795249B2, “Certain pyrazoline derivatives with kinase inhibitory activity” (Millennium Pharmaceuticals, Inc., priority 2006, dated 2010).
Some of these results come from one statement about several compounds together.

Amino acid sequences for entries named in this document (tags omitted).
UniProt P15056, whole entry, stated change not applied: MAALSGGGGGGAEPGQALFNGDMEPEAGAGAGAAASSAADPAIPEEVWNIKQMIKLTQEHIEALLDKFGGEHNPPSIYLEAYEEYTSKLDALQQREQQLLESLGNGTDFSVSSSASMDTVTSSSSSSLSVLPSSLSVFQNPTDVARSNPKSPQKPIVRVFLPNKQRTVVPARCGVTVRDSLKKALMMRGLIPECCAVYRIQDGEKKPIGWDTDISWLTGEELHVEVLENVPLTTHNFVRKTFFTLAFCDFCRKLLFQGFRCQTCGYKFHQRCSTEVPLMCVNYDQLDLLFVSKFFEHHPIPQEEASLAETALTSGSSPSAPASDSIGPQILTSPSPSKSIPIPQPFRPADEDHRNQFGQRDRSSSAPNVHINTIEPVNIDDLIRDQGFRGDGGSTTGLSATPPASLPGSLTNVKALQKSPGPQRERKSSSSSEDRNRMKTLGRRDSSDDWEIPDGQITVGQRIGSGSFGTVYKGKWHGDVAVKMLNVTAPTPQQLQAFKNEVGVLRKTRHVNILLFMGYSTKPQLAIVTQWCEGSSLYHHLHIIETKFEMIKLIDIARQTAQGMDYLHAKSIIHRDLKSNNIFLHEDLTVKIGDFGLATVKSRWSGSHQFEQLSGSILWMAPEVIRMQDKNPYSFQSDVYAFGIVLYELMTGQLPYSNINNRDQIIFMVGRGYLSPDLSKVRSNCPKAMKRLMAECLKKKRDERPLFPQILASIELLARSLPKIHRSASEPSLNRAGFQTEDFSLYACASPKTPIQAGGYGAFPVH

Target: T1, B-Raf (V599E or Wild Type) (Homo sapiens, UniProt P15056)
T1 construct: Enzymatically active wild-type B-Raf was purchased from Upstate (cat#14-530); Enzymatically active mutant B-Raf(V599E) was purified in house; fused on or other part: None is printed; By knowledge, Upstate 14-530 is an N-terminally GST-tagged truncated human B-Raf; the tag is not part of the key
Experiment: B-Raf Flash Plate Assay
Format: biochemical
Conditions: bin: less than or equal to 100 nM

Compound | IC50
O=C(O)c1ccccc1-c1ccc(C(=O)N2N=C(c3cccnc3)CC2c2ccccc2O)s1 (stereo not shown) [Compound I-197, 2-(5-{[5-(2-hydroxyphenyl)-3-pyridin-3-yl-4,5-dihydro-1H-pyrazol-1-yl]carbonyl}-2-thienyl)benzoic acid] | ≤ 100 nM
O=C(Nc1ccccc1-n1cccn1)N1N=C(c2cccnc2)CC1c1ccccc1O (stereo not shown) [Compound I-255, 5-(2-hydroxyphenyl)-N-[2-(1H-pyrazol-1-yl)phenyl]-3-pyridin-3-yl-4,5-dihydro-1H-pyrazole-1-carboxamide] | ≤ 100 nM
CC(=O)Nc1cncc(C2=NN(C(=O)c3ccc(-c4ccccn4)s3)C(c3ccccc3O)C2)c1 (stereo not shown) [Compound I-379, N-(5-{5-(2-hydroxyphenyl)-1-[(5-pyridin-2-yl-2-thienyl)carbonyl]-4,5-dihydro-1H-pyrazol-3-yl}pyridin-3-yl)acetamide] | ≤ 100 nM
O=C(c1ccc(-c2cccc3c2CNCC3)s1)N1N=C(c2cccnc2)CC1c1ccccc1O (stereo not shown) [Compound I-252, 2-(3-pyridin-3-yl-1-{[5-(1,2,3,4-tetrahydroisoquinolin-8-yl)-2-thienyl]carbonyl}-4,5-dihydro-1H-pyrazol-5-yl)phenol] | ≤ 100 nM
O=C(c1ccc(CCc2ccccn2)s1)N1N=C(c2cccnc2)CC1c1ccccc1O (stereo not shown) [Compound I-100, 2-(3-pyridin-3-yl-1-{[5-(2-pyridin-2-ylethyl)-2-thienyl]carbonyl}-4,5-dihydro-1H-pyrazol-5-yl)phenol] | ≤ 100 nM
O=C(c1csc(-c2cccs2)n1)N1N=C(c2cccnc2)CC1c1ccccc1O (stereo not shown) [Compound I-128, 2-(3-pyridin-3-yl-1-{[2-(2-thienyl)-1,3-thiazol-4-yl]carbonyl}-4,5-dihydro-1H-pyrazol-5-yl)phenol] | ≤ 100 nM
CN(C)CCNCc1cccc(-c2ccc(C(=O)N3N=C(c4cccnc4)CC3c3c(O)cccc3F)s2)c1 (stereo not shown) [Compound I-355, 2-[1-({5-[3-({[2-(dimethylamino)ethyl]amino}methyl)phenyl]-2-thienyl}carbonyl)-3-pyridin-3-yl-4,5-dihydro-1H-pyrazol-5-yl]-3-fluorophenol] | ≤ 100 nM

Next, values leading:

IC50 | Compound
≤ 100 nM | O=C(c1ccc(-c2ccc(N3CCNCC3)nc2)s1)N1N=C(c2cccnc2)CC1c1ccccc1O (stereo not shown) [Compound I-207, 2-(1-{[5-(6-piperazin-1-ylpyridin-3-yl)-2-thienyl]carbonyl}-3-pyridin-3-yl-4,5-dihydro-1H-pyrazol-5-yl)phenol]
≤ 100 nM | NCc1ccccc1-c1ccc(C(=O)N2N=C(c3cncc(N)c3)CC2c2ccccc2O)s1 (stereo not shown) [Compound I-217, 2-[1-({5-[2-(aminomethyl)phenyl]-2-thienyl}carbonyl)-3-(5-aminopyridin-3-yl)-4,5-dihydro-1H-pyrazol-5-yl]phenol]
≤ 100 nM | Cc1nc(-c2cc(C(=O)N3N=C(c4cccnc4)CC3c3ccccc3O)no2)cs1 (stereo not shown) [Compound I-102, 2-(1-{[5-(2-methyl-1,3-thiazol-4-yl)isoxazol-3-yl]carbonyl}-3-pyridin-3-yl-4,5-dihydro-1H-pyrazol-5-yl)phenol]
≤ 100 nM | COc1ccc(-c2cc(C(=O)N3N=C(c4cccnc4)CC3c3ccccc3O)no2)cc1 (stereo not shown) [Compound I-21, 2-(1-{[5-(4-methoxyphenyl)isoxazol-3-yl]carbonyl}-3-pyridin-3-yl-4,5-dihydro-1H-pyrazol-5-yl)phenol]
≤ 100 nM | O=C(c1cc(-c2ccco2)n[nH]1)N1N=C(c2cccnc2)CC1c1ccccc1O (stereo not shown) [Compound I-184, 2-(1-{[3-(2-furyl)-1H-pyrazol-5-yl]carbonyl}-3-pyridin-3-yl-4,5-dihydro-1H-pyrazol-5-yl)phenol]
≤ 100 nM | Cc1cccc(-n2cnc(C(=O)N3N=C(c4cccnc4)CC3c3ccccc3O)c2)n1 (stereo not shown) [Compound I-4, 2-(1-{[1-(6-methylpyridin-2-yl)-1H-imidazol-4-yl]carbonyl}-3-pyridin-3-yl-4,5-dihydro-1H-pyrazol-5-yl)phenol]
